No constants are given. Whether binding was seen depends on the method and setting. In cells and extracts the contact can be indirect.

Sequences of proteins named here, by UniProt entry; tags and fusion partners are left off.
UniProt O00429: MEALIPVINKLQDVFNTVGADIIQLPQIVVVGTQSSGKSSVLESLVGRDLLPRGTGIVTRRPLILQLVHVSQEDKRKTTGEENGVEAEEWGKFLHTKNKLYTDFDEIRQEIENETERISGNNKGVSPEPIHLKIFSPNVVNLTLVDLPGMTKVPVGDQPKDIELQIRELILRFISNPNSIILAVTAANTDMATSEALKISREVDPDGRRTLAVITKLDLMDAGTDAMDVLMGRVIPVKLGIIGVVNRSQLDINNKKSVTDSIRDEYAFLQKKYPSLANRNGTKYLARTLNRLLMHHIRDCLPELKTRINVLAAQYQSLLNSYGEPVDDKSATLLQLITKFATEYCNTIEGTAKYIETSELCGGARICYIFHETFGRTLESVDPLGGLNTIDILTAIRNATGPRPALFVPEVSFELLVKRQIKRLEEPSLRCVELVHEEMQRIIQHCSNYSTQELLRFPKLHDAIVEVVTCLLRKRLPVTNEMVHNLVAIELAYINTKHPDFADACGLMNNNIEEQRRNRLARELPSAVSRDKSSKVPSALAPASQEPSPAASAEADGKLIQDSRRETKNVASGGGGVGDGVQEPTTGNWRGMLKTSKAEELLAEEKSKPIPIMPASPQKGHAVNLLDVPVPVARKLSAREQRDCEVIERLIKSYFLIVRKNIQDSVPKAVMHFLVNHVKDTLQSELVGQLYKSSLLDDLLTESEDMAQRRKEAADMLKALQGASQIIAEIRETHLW

The text below walks through data of paper PMC13354802.

The test deals with SidC, purified L. pneumophila effector (negative control) (L. pneumophila) (UniProt Q6RCR4). Kind of test: pull-down; only the target purified.

For “dynamin-related protein 1 (Drp1), endogenous in HeLa cell lysate (from UniProt O00429 1-736) (enzyme)”, the binding result was “no binding”.
